From patent US11118065B2, “Fluorenylaminoketone photoinitiator, preparation method thereof, and UV photocurable composition containing same” (CHANGZHOU TRONLY ADVANCED ELECTRONIC MATERIALS CO., LTD., priority 2017, dated 2021)

Experiments:
[1] = Test of curing property: UV curing ink spray coated on ceramic tile; conditions: hundred-grid crosscut method, 5% photoinitiator, 60-80 μm, UV 80 mw/cm^2 for 50s
[2] = Example 25: UV offset printing ink on plastic substrate; set-up: key to Odor: 1: odorless; 2: odorous; 3: irritatingly odorous; conditions: for Exposure demand mJ/cm^2: 2 μm, 250-450 nm; for Adherence: crosscut test GB9286-88; for Odor: residual odor of cured film; for Yellowing: value of Δb
[3] = Example 23: UV solder resist ink; set-up: key to Odor: 1: odorless; 2: odorous; 3: irritatingly odorous; key to Pattern integrity: Δ: there was no defect; □: there were a few defects; ▴: there were severe defects; conditions: for Exposure demand mJ/cm^2: dry film 12-15 μm, 250-450 nm; for Odor: residual odor of cured film; for Yellowing: value of Δb
[4] = Example 24: UV flexographic printing ink on white paperboard; set-up: key: 1: odorless; 2: odorous; 3: irritatingly odorous; conditions: residual odor of cured film
[5] = Example 21: UV coating on tin-plated steel plate; set-up: key to Odor: 1: odorless; 2: odorous; 3: irritatingly odorous; conditions: for Exposure demand mJ/cm^2: 25 μm, 250-450 nm; for Adherence: crosscut test GB9286-88; for Odor: residual odor of cured film; for Yellowing: value of Δb, colorimeter scan 400-700 nm, after baking at 80° C. for 24 h
[6] = Example 22: UV etching resist ink; set-up: key to Odor: 1: odorless; 2: odorous; 3: irritatingly odorous; key to Pattern integrity: Δ: there was no defect; □: there were a few defects; ▴: there were severe defects; conditions: for Odor: residual odor of cured film

CCC(Cc1ccccc1)(C(=O)c1ccc(N2CCOCC2)cc1)N(C)C (stereo not drawn) [Irgacure 369, 2-benzyl-2-dimethylamino-1-(4-morpholinophenyl)butanone, reference compound]
Adherence ([1]; black ink): Level 3
Adherence ([1]; blue ink): Level 2
Adherence ([1]; red ink): Level 2
Adherence ([1]; yellow ink): Level 2
Exposure demand mJ/cm^2 [2]: 210 mJ/cm^2
Adherence [2]: Level 1
Odor [2]: 1
Yellowing [2]: 1.08

CN(C)C(C)(Cc1ccccc1)C(=O)c1ccc2c(c1)Cc1cc(C(=O)c3ccccc3)ccc1-2 (stereo not drawn) [Compound 30]
Exposure demand mJ/cm^2 [2]: 120 mJ/cm^2
Adherence [2]: Level 0
Odor [2]: 1
Yellowing [2]: 0.68
Pattern integrity [3]: Δ
Exposure demand mJ/cm^2 [3]: 110 mJ/cm^2
Odor [3]: 1
Yellowing [3]: 0.76

CCC(Cc1ccc(C)cc1)(C(=O)c1ccc2c(c1)C(C)(C)c1cc(N3CCCCC3)ccc1-2)N1CCCCC1 (stereo not drawn) [Compound 44]
Odor [4]: 1

CCC(Cc1ccccc1)(C(=O)c1ccc2c(c1)C(C)(C)c1cc(N(CCO)CCO)ccc1-2)N(C)C (stereo not drawn) [Compound 45]
Adherence ([1]; black ink): Level 0
Adherence ([1]; blue ink): Level 0
Adherence ([1]; red ink): Level 0
Adherence ([1]; yellow ink): Level 0
Exposure demand mJ/cm^2 [5]: 120 mJ/cm^2
Adherence [5]: Level 0
Odor [5]: 1
Yellowing [5]: 0.73
Pattern integrity [6]: Δ
Odor [6]: 1
Pattern integrity [3]: Δ
Exposure demand mJ/cm^2 [3]: 100 mJ/cm^2
Odor [3]: 1
Yellowing [3]: 0.74

CCCCC1(CCCC)c2ccccc2-c2ccc(C(=O)C(CC)(Cc3ccccc3)N(C)C)cc21 (stereo not drawn) [Compound 40, 2-benzyl-2-dimethylamino-9,9-dibutylfluorene-1-butanone]
Adherence ([1]; black ink): Level 0
Adherence ([1]; blue ink): Level 0
Adherence ([1]; red ink): Level 0
Adherence ([1]; yellow ink): Level 0

COc1ccc2c(c1)C1(CCC3(CC1)c1cc(OC)ccc1-c1ccc(C(=O)C(C)(C)N4CCOCC4)cc13)c1cc(C(=O)C(C)(C)N3CCOCC3)ccc1-2 (stereo not drawn) [Compound 36]
Odor [4]: 1

C=CCC1(CC=C)c2ccccc2-c2ccc(C(=O)C(C)(C)N3CCOCC3)cc21 [Compound 35]
Exposure demand mJ/cm^2 [2]: 100 mJ/cm^2
Adherence [2]: Level 0
Odor [2]: 1
Yellowing [2]: 0.70
Pattern integrity [6]: Δ
Odor [6]: 1

CCCCC1(CCCC)c2ccccc2-c2ccc(C(=O)C(C)(Cc3ccccc3)N(C)C)cc21 (stereo not drawn) [Compound 27]
Exposure demand mJ/cm^2 [2]: 110 mJ/cm^2
Adherence [2]: Level 0
Odor [2]: 1
Yellowing [2]: 0.59
Pattern integrity [6]: Δ
Odor [6]: 1

CCCCC1(CCCC)c2cc(C(=O)c3ccccc3)ccc2-c2ccc(C(=O)C(C)(Cc3ccccc3)N(C)C)cc21 (stereo not drawn) [Compound 31]
Pattern integrity [6]: Δ
Odor [6]: 1

CCCCC1(CCCC)c2cc(OC)ccc2-c2ccc(C(=O)C(C)(C)N3CCCCC3)cc21 [Compound 16]
Odor [4]: 1

CCCCC1(CCCC)c2cc(C(=O)c3ccccc3)ccc2-c2ccc(C(=O)C(CC)(Cc3ccccc3)N(C)C)cc21 (stereo not drawn) [Compound 41, 2-benzyl-2-dimethylamino-9,9-dibutyl-1-(7-benzoyl)butanone]
Adherence ([1]; black ink): Level 1
Adherence ([1]; blue ink): Level 0
Adherence ([1]; red ink): Level 1
Adherence ([1]; yellow ink): Level 0
Exposure demand mJ/cm^2 [2]: 100 mJ/cm^2
Adherence [2]: Level 0
Odor [2]: 1
Yellowing [2]: 0.64

C=CCC1(CC=C)c2cc(OC)ccc2-c2ccc(C(=O)C(C)(C)N3CCOCC3)cc21 [Compound 4]
Adherence ([1]; black ink): Level 0
Adherence ([1]; blue ink): Level 0
Adherence ([1]; red ink): Level 0
Adherence ([1]; yellow ink): Level 0
Exposure demand mJ/cm^2 [5]: 120 mJ/cm^2
Adherence [5]: Level 0
Odor [5]: 1
Yellowing [5]: 0.72
Pattern integrity [3]: Δ
Exposure demand mJ/cm^2 [3]: 100 mJ/cm^2
Odor [3]: 1
Yellowing [3]: 0.78

CCCCC1(CCCC)c2cc(C(=O)C(C)(C)N3CCOCC3)ccc2-c2ccc([N+](=O)[O-])cc21 [Compound 7]
Exposure demand mJ/cm^2 [2]: 110 mJ/cm^2
Adherence [2]: Level 0
Odor [2]: 1
Yellowing [2]: 0.58

CCCCC1(CCCC)c2cc(C)ccc2-c2ccc(C(=O)C(C)(CCC(C)(C(=O)c3ccc4c(c3)C(CCCC)(CCCC)c3cc(C)ccc3-4)N(C)C)N(C)C)cc21 (stereo not drawn) [Compound 37]
Pattern integrity [6]: Δ
Odor [6]: 1

CC(C)(C(=O)c1ccc2c(c1)Cc1cc(C(=O)C(C)(C)N3CCCCC3)ccc1-2)N1CCCCC1 [Compound 24]
Adherence ([1]; black ink): Level 0
Adherence ([1]; blue ink): Level 0
Adherence ([1]; red ink): Level 0
Adherence ([1]; yellow ink): Level 0
Exposure demand mJ/cm^2 [2]: 110 mJ/cm^2
Adherence [2]: Level 0
Odor [2]: 1
Yellowing [2]: 0.58
Exposure demand mJ/cm^2 [5]: 120 mJ/cm^2
Adherence [5]: Level 0
Odor [5]: 1
Yellowing [5]: 0.77
Pattern integrity [6]: Δ
Odor [6]: 1

CCC(Cc1ccccc1)(C(=O)c1ccc2c(c1)C(C)(C)c1cc(N3CCOCC3)ccc1-2)N(C)C (stereo not drawn) [Compound 38, 2-benzyl-2-dimethylamino-9,9-dimethyl-1-(7-morpholinofluorenyl)butanone]
Adherence ([1]; black ink): Level 0
Adherence ([1]; blue ink): Level 0
Adherence ([1]; red ink): Level 0
Adherence ([1]; yellow ink): Level 0
Exposure demand mJ/cm^2 [2]: 110 mJ/cm^2
Adherence [2]: Level 0
Odor [2]: 1
Yellowing [2]: 0.65
Exposure demand mJ/cm^2 [5]: 110 mJ/cm^2
Adherence [5]: Level 0
Odor [5]: 1
Yellowing [5]: 0.68
Pattern integrity [3]: Δ
Exposure demand mJ/cm^2 [3]: 100 mJ/cm^2
Odor [3]: 1
Yellowing [3]: 0.75

CCCCC1(CCCC)c2ccccc2-c2ccc(C(=O)C(C)(C)N3CCOCC3)cc21 [Compound 5]
Adherence ([1]; black ink): Level 0
Adherence ([1]; blue ink): Level 0
Adherence ([1]; red ink): Level 0
Adherence ([1]; yellow ink): Level 0
Exposure demand mJ/cm^2 [5]: 110 mJ/cm^2
Adherence [5]: Level 0
Odor [5]: 1
Yellowing [5]: 0.74
Pattern integrity [6]: Δ
Odor [6]: 1
Pattern integrity [3]: Δ
Exposure demand mJ/cm^2 [3]: 90 mJ/cm^2
Odor [3]: 1
Yellowing [3]: 0.76

CC1(C)c2ccccc2-c2ccc(C(=O)C(C)(C)N3CCCCC3)cc21 [Compound 15]
Pattern integrity [6]: Δ
Odor [6]: 1
Pattern integrity [3]: Δ
Exposure demand mJ/cm^2 [3]: 90 mJ/cm^2
Odor [3]: 1
Yellowing [3]: 0.78

CC(Cc1ccccc1)(C(=O)c1ccc2c(c1)Cc1ccccc1-2)N1CCOCC1 (stereo not drawn) [Compound 28]
Exposure demand mJ/cm^2 [5]: 110 mJ/cm^2
Adherence [5]: Level 0
Odor [5]: 1
Yellowing [5]: 0.70

CCC(Cc1ccccc1)(C(=O)c1ccc2c(c1)Cc1cc(C(=O)c3ccccc3)ccc1-2)N1CCOCC1 (stereo not drawn) [Compound 32]
Exposure demand mJ/cm^2 [5]: 110 mJ/cm^2
Adherence [5]: Level 0
Odor [5]: 1
Yellowing [5]: 0.68

CCCC1(CCC)c2cc(C(=O)C(CC)(Cc3ccccc3)N(C)C)ccc2-c2ccc(N3CCCCC3)cc21 (stereo not drawn) [Compound 43]
Adherence ([1]; black ink): Level 1
Adherence ([1]; blue ink): Level 0
Adherence ([1]; red ink): Level 1
Adherence ([1]; yellow ink): Level 1
Exposure demand mJ/cm^2 [2]: 110 mJ/cm^2
Adherence [2]: Level 0
Odor [2]: 1
Yellowing [2]: 0.70
Pattern integrity [6]: Δ
Odor [6]: 1

CCCCC1(CCCC)c2cc(C(=O)c3ccccc3)ccc2-c2ccc(C(=O)C(C)(C)N3CCOCC3)cc21 [Compound 9]
Adherence ([1]; black ink): Level 0
Adherence ([1]; blue ink): Level 0
Adherence ([1]; red ink): Level 0
Adherence ([1]; yellow ink): Level 0
Exposure demand mJ/cm^2 [2]: 110 mJ/cm^2
Adherence [2]: Level 0
Odor [2]: 1
Yellowing [2]: 0.66
Exposure demand mJ/cm^2 [5]: 130 mJ/cm^2
Adherence [5]: Level 0
Odor [5]: 1
Yellowing [5]: 0.68

CCCCC1(CCCC)c2cc(C(=O)C(CC)(Cc3ccccc3)N(C)C)ccc2-c2ccc(N3CCOCC3)cc21 (stereo not drawn) [Compound 14]
Adherence ([1]; black ink): Level 0
Adherence ([1]; blue ink): Level 0
Adherence ([1]; red ink): Level 0
Adherence ([1]; yellow ink): Level 0
Exposure demand mJ/cm^2 [2]: 110 mJ/cm^2
Adherence [2]: Level 0
Odor [2]: 1
Yellowing [2]: 0.68
Exposure demand mJ/cm^2 [5]: 110 mJ/cm^2
Adherence [5]: Level 0
Odor [5]: 1
Yellowing [5]: 0.74

C=CCC(CC)(C(=O)c1ccc2c(c1)C(C)(C)c1cc(N3CCCCC3)ccc1-2)N(C)C (stereo not drawn) [Compound 39, 2-allyl-2-dimethylamino-9,9-dimethyl-2-(7-piperidinylfluorenyl)butanone]
Adherence ([1]; blue ink): Level 0
Adherence ([1]; yellow ink): Level 0
Pattern integrity [6]: Δ
Odor [6]: 1

CCCCC1(CCCC)c2cc(Cl)ccc2-c2ccc(C(=O)C(C)(C)N3CCOCC3)cc21 [Compound 6]
Odor [4]: 1
